These are yes or no findings as the source states them, for the method shown. In cells and extracts the contact can be indirect. Binding can be weak; no strength is given.

Chains of the proteins cited; added tags and fusions are not shown. Lines headed by an entry give the natural chain unless they say otherwise; changes in a name come on top.
UniProt Q9VGX5: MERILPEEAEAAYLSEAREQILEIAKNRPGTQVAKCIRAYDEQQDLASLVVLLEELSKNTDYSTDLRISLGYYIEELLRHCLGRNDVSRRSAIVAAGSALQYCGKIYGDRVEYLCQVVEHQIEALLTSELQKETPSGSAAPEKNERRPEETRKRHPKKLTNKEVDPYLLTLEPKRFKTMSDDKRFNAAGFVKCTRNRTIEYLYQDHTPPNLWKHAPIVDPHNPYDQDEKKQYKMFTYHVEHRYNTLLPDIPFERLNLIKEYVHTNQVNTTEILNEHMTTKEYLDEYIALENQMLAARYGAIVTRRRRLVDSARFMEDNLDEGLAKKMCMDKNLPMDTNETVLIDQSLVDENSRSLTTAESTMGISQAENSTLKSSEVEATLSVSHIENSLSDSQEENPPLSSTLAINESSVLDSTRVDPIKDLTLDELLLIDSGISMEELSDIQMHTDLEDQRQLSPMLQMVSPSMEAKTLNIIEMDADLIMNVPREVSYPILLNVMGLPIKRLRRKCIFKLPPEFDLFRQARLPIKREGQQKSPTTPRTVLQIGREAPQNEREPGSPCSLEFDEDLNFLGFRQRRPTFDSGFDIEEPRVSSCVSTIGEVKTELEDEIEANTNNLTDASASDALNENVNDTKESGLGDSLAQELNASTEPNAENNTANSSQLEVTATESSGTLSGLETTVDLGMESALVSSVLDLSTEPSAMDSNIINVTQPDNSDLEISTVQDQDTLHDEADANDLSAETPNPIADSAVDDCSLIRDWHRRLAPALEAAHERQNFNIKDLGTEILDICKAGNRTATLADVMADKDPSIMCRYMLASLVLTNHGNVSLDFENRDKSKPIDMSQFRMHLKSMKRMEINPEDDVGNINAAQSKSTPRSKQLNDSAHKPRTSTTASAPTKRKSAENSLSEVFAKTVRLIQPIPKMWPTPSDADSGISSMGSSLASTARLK

This assay deals with Cap-H2-EGFP (Drosophila) (UniProt Q9VGX5). Briefly: co-IP; GFP-binding protein on Protein A-coupled Sepharose; lysates of transfected S2 cells (induced with 1-2 mM CuSO4, 24 hr) in CLB (100 mM Tris pH 7.2, 125 mM NaCl, 1 mM DTT, 0.1% Triton X-100, 0.1 mM PMSF), 40 min at 4°; immunoblots with anti-GFP and anti-Mrg15. In general terms: Immunoblotting shows a protein as a band on a membrane.

B1: Mrg15 (protein, UniProt Q9Y0I1 1-424)
chain: MGEVKPAKVENYSTGTDANTLFVDGERVLCFHGPLIYEAKVLKTKPDATPVEYYIHYAGWSKNWDEWVPENRVLKYNDDNVKRRQELARQCGERSKKDNKKGSAKAKKMEQMRNESRASTPSKDSNTSQSTASSTPTTSAGPGSKSEAGSTGTTTTNSTANSTTSRAHRKSTQSTPSTARPGTPSDKKEDPAAAETTEEEGPVAPKKKRMSEQRPSLTGSDVAEKPLPPTTTPSTPTTEPAPCVESEEAYAAKVEVKIKIPDELKHYLTDDWYAVVREHKLLELPAKVTVQQISEQYLAHKKSVKSTSASKEVAINDVLDGIVEYFNVMLGSQLLYKFERTQYADVMQKHPDTPLSELYGSFHLLRLFVRLGSMLSYSALDQQSMQNLLTHVQDFLKFLVKNSSIFFSMSNFINVDPEYVRNAQ
Consider B1, for which the binding entry is reported as “binds”.
